Test results from patent US11680047B2, “Enhanced erythropoiesis and iron metabolism” (FibroGen, Inc., priority 2003, dated 2023).
Some entries share one result that the patent states for a list of compounds.

Tests used:
VCAM-1 = test: TNF-α induced VCAM-1 expression in HUVEC; type: cell-based, human; conditions: 1 ng/ml TNF-α, 50 μM compound, 1 day
Text: Endothelial cell adhesiveness for lymphocytes occurs, in part, by endothelial cell expression of vascular cell adhesion molecule (VCAM)-1. VCAM-1 expression in endothelial cells is induced by various inflammatory cytokines, such as TNF-α. To investigate the effect of HIF prolyl hydroxylase inhibition on TNF-α induced VCAM-1 expression, HUVEC (human umbilical vein endothelial cells) were stimulated with TNF-α in the absence or presence of various concentrations of compound B or compound C for 1 day. VCAM expression was then measured.
(§1) Endothelial E-selectin belongs to the selectin family of cellular adhesion molecules mediating the initial attachment of leukocytes to vascular endothelial cells in inflammatory events. IL-1β, TNF-α, and lipopolysaccharides each induce the expression of E-selectin. (See, e.g., Bevilacqua et al. (1987) Proc Natl Acad Sci USA 84:9238-9242 and Bevilacqua and van Furth (1993) J Leukoc Biol 54:363-378.) To investigate the effect of HIF prolyl hydroxylase inhibition on TNF-α induced E-selectin expression, HUVECs were stimulated with 1 ng/ml TNF-α in the absence or presence of various concentrations of compound B or compound C for 1 day. E-selectin and VCAM expression were then measured.

E-selectin = test: TNF-α induced E-selectin expression in HUVEC; type: cell-based, human; conditions: 1 ng/ml TNF-α, 50 μM compound, 1 day
Text: as §1

Compound | percent inhibition of VCAM expression (VCAM-1) | percent inhibition of E-selectin expression (E-selectin)
O=C(O)CNC(=O)c1ncc2cc(Oc3ccccc3)ccc2c1O [Compound B, [(4-Hydroxy-7-phenoxy-isoquinoline-3-carbonyl)-amino]-acetic acid] | Greater than 60% | Greater than 60%
O=C(O)CNC(=O)c1ncc2cc(Sc3ccccc3)ccc2c1O [C, [(4-Hydroxy-7-phenylsulfanyl-isoquinoline-3-carbonyl)-amino]-acetic acid] | Greater than 60% | Greater than 60%
